These results are taken from PMC8830441, “Interaction of TLK1 and AKTIP as a Potential Regulator of AKT Activation in Castration-Resistant Prostate Cancer Progression” (Pathophysiology, 2021).

By UniProt entry, the sequences of proteins in these tests, tags left out. Where a name states a change or a piece, a line headed by the entry shows the natural chain unless it says otherwise. Chains listed by the source or under a name are the forms on record and can include a tag or linker. Residues count along the entry.
UniProt Q9UKI8: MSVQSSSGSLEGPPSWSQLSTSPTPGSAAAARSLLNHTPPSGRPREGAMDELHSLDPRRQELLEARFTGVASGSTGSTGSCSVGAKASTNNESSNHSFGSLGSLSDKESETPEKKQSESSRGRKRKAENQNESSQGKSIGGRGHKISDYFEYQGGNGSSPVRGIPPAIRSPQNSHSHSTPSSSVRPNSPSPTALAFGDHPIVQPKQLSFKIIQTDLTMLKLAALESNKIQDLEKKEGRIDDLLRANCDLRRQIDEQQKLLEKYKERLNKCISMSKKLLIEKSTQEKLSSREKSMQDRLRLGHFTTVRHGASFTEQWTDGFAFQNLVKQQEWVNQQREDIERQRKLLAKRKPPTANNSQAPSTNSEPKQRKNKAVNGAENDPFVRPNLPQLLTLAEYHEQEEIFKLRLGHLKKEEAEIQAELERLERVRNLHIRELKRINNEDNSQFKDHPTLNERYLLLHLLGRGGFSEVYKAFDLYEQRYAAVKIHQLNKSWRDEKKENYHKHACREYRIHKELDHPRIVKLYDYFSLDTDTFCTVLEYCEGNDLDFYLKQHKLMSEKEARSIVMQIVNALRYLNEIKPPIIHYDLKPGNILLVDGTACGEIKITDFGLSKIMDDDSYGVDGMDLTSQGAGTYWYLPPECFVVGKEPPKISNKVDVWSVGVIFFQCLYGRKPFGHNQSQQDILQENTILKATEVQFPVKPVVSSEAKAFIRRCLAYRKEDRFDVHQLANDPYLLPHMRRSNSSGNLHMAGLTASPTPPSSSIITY
Full-length, wild-type recombinant His-tagged TLK1B: residues 218-766 of Q9UKI8

Results are given in words; binding and its absence hold for the method and conditions named. In cells and extracts the contact can be indirect. Some entries that bind do so weakly or less than the wild type.

Assay [1] deals with endogenous TLK1 (human (endogenous in HEK 293 and LNCaP)) (UniProt Q9UKI8). Briefly: co-IP; HEK 293 and LNCaP cell lysates, precipitated with TLK1 antiserum, protein A/G agarose beads, WB for AKTIP.
In assay [2] the target is Full-length, wild-type recombinant His-tagged TLK1B (human) (UniProt Q9UKI8). Briefly: pull-down; His-TLK1B incubated with 400 µg of HEK 293 cell lysate on ice 30 min, isolated on Ni-NTA agarose beads, WB for AKTIP; only the target purified.

B1: wild-type full-length human GST-AKTIP (natural protein, UniProt Q9H8T0 1-292, looked up)
chain: MNPFWSMSTSSVRKRSEGEEKTLTGDVKTSPPRTAPKKQLPSIPKNALPITKPTSPAPAAQSTNGTHASYGPFYLEYSLLAEFTLVVKQKLPGVYVQPSYRSALMWFGVIFIRHGLYQDGVFKFTVYIPDNYPDGDCPRLVFDIPVFHPLVDPTSGELDVKRAFAKWRRNHNHIWQVLMYARRVFYKIDTASPLNPEAAVLYEKDIQLFKSKVVDSVKVCTARLFDQPKIEDPYAISFSPWNPSVHDEAREKMLTQKKPEEQHNKSVHVAGLSWVKPGSVQPFSKEEKTVAT
notes: also called GST-tagged AKTIP; source: bacterial expression plasmid, recombinant, purified from bacteria according to the published literature
Take B1: the binding entry in assay [1] and in assay [2] was “binds” each time.
